Reference: PubChem BioAssay AID192 (DTP/NCI, 2004)
The list shows only some results of the screen, not a fair sample: it is rich in T/C values a quarter to a half above the control, in often repeated tests (any T/C) and in doses without a T/C. Further doses and runs are listed elsewhere. T/C: endpoint of the treated group in % of that of the vehicle group. Some entries give survivors of the animals treated and no T/C: the source holds a T/C of zero for them, seemingly a mark for toxic or unscored doses. Some doses without a T/C left all or most animals alive at the check, yet need not have been tolerated: survival well below the control is almost never listed, so the zero probably covers shortened survival too. Counts of survivors are from the toxicity check (mostly the fifth day) where no day follows; animals may have died later. Schedules are NCI's codes, taken here to give the interval after Q, in days (D) or hours (H), and the number of doses after X. Some doses were run more than once; the values are given in rising order. Some molecules as drawn cover several salts, stereoisomers or complexes of the source; a dose is that of the sample tested. Where survival is the endpoint, this PubChem deposit counts one and a half times the control or more as active, and values a quarter to a half above the control carry no call in these data; other NCI protocols may use other cut-offs.

Tested on: BDF1 mice, B16 melanoma ip, median survival T/C
Assay: NCI In Vivo Anticancer Drug Screen. Data for tumor model B16 Melanoma (intraperitoneal) in B6D2F1 (BDF1) mice
Conditions: T/C endpoint: median survival time, higher T/C = longer survival
Outline: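 Values are ratios of treated (T) to vehicle-control (C) measurements of survival or tumor size in tumor-bearing mice.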

[1] = dose: 3.12 mg/kg/injection, schedule: Q01DX009 (ip), vehicle: saline
[2] = dose: 12.5 mg/kg/injection, schedule: Q01DX009 (ip), vehicle: saline
[3] = dose: 25.0 mg/kg/injection, schedule: Q01DX009 (ip), vehicle: saline
[4] = dose: 200.0 mg/kg/injection, schedule: Q01DX009 (ip), vehicle: saline with Tween-80
[5] = dose: 3.12 mg/kg/injection, schedule: Q01DX009 (ip), vehicle: saline with Tween-80
[6] = dose: 6.25 mg/kg/injection, schedule: Q01DX009 (ip), vehicle: saline with Tween-80
[7] = dose: 12.5 mg/kg/injection, schedule: Q01DX009 (ip), vehicle: saline with Tween-80
[8] = dose: 50.0 mg/kg/injection, schedule: Q01DX009 (ip), vehicle: saline with Tween-80
[9] = dose: 100.0 mg/kg/injection, schedule: Q01DX009 (ip), vehicle: saline with Tween-80
[10] = dose: 200.0 mg/kg/injection, schedule: Q01DX009 (ip), vehicle: saline
[11] = dose: 400.0 mg/kg/injection, schedule: Q01DX009 (ip), vehicle: saline
[12] = dose: 25.0 mg/kg/injection, schedule: Q01DX009 (ip), vehicle: Klucel (hydroxypropylcellulose) (HPC)
[13] = dose: 50.0 mg/kg/injection, schedule: Q01DX009 (ip), vehicle: Klucel (hydroxypropylcellulose) (HPC)
[14] = dose: 100.0 mg/kg/injection, schedule: Q01DX009 (ip), vehicle: Klucel (hydroxypropylcellulose) (HPC)
[15] = dose: 200.0 mg/kg/injection, schedule: Q01DX009 (ip), vehicle: Klucel (hydroxypropylcellulose) (HPC)
[16] = dose: 400.0 mg/kg/injection, schedule: Q01DX009 (ip), vehicle: Klucel (hydroxypropylcellulose) (HPC)

Cc1nc(NCc2ccccc2)c2cc[nH]c2n1
T/C (dose: 0.19 mg/kg/injection, schedule: Q01DX009 (ip), vehicle: saline): 129 % of control
T/C (dose: 0.78 mg/kg/injection, schedule: Q01DX009 (ip), vehicle: saline): 129 % of control
survivor count (dose: 1.56 mg/kg/injection, schedule: Q01DX009 (ip), vehicle: saline): 10 of 10
survivor count [1]: 10 of 10
survivor count (dose: 6.25 mg/kg/injection, schedule: Q01DX009 (ip), vehicle: saline): 10 of 10
survivor count [2]: 10 of 10
survivor count [3]: 5 of 10

O=C(O)CCC(=O)O
survivor count (dose: 80.0 mg/kg/injection, schedule: Q01DX009 (ip), vehicle: water): 10 of 10
survivor count (dose: 160.0 mg/kg/injection, schedule: Q01DX009 (ip), vehicle: water): 9 of 10 and 10 of 10
survivor count (dose: 640.0 mg/kg/injection, schedule: Q01DX009 (ip), vehicle: water): 2 of 10

O=C1NC(=O)C(Cc2ccccc2)(c2ccccc2)N1 (configuration not stated)
survivor count [4]: 10 of 10

CCCCCCCCCCCCCCCCCC(=O)NCNC(=O)CCCCCCCCCCCCCCCCC
survivor count (dose: 18.75 mg/kg/injection, schedule: Q04DX003 (ip), vehicle: saline with Tween-80): 10 of 10

CC1=CC(=O)c2ccccc2C1=O
T/C [5]: 137 % of control
T/C [6]: 130 % of control
T/C [7]: 131 % of control
survivor count [8]: 8 of 10
survivor count [9]: 0 of 10
survivor count [4]: 0 of 10

C(COCCOCC1CO1)OCCOCC1CO1 (configuration not stated)
T/C [10]: 138 % of control
survivor count (dose: 400.0 mg/kg/injection, schedule: Q01DX009 (ip), vehicle: saline with Tween-80): 3 of 10
survivor count [11]: 5 of 6

COc1ccc(/C=N/n2c3ccccc3c3ccccc32)cc1OCCCN(C)C
survivor count [12]: 10 of 10
survivor count [13]: 4 of 10
survivor count [14]: 5 of 10
survivor count [15]: 0 of 10

COc1cc(-c2ccc(N=Nc3ccc4c(S(=O)(=O)O)cc(S(=O)(=O)O)c(N)c4c3O)c(OC)c2)ccc1N=Nc1ccc2c(S(=O)(=O)O)cc(S(=O)(=O)O)c(N)c2c1O
survivor count (dose: 100.0 mg/kg/injection, schedule: Q01DX009 (ip), vehicle: saline): 10 of 10
survivor count [10]: 9 of 10
survivor count [11]: 0 of 10

Cc1cc(OC(=O)Nc2cccc(Cl)c2)ccc1[N+](=O)[O-]
survivor count [15]: 9 of 10

O=C1Nc2ccc(Cl)cc2C(c2ccccc2)=NC1O (configuration not stated)
T/C [1]: 125 % of control
T/C [2]: 127 % of control
T/C (dose: 25.0 mg/kg/injection, schedule: Q01DX009 (ip), vehicle: saline, evaluated on day 30): 131 % of control
T/C (dose: 25.0 mg/kg/injection, schedule: Q01DX009 (ip), vehicle: saline, evaluated on day 60): 125 % of control
T/C (dose: 50.0 mg/kg/injection, schedule: Q01DX009 (ip), vehicle: saline): 125 % of control

O=C1c2ccccc2C(Cl)=C(Cl)C1(Cl)Cl
survivor count (dose: 50.0 mg/kg/injection, schedule: Q04DX003 (ip), vehicle: Klucel (hydroxypropylcellulose) (HPC)): 10 of 10
survivor count (dose: 100.0 mg/kg/injection, schedule: Q04DX003 (ip), vehicle: Klucel (hydroxypropylcellulose) (HPC)): 10 of 10
survivor count (dose: 200.0 mg/kg/injection, schedule: Q04DX003 (ip), vehicle: Klucel (hydroxypropylcellulose) (HPC)): 9 of 10

Nc1ccnc(=O)[nH]1
T/C (dose: 256.0 mg/kg/injection, schedule: Q01DX009 (ip), vehicle: saline with Tween-80): 126 % of control

O=NN(CCF)C(=O)NC1CCC(=O)NC1=O (configuration not stated)
T/C (dose: 3.75 mg/kg/injection, schedule: Q01DX001 (ip), vehicle: saline): 126 % of control

O=[N+]([O-])O.O=[N+]([O-])O.[O]=[Zr]
survivor count (dose: 100.0 mg/kg/injection, schedule: Q04DX003 (ip), vehicle: saline): 10 of 10
survivor count (dose: 200.0 mg/kg/injection, schedule: Q04DX003 (ip), vehicle: saline): 10 of 10
survivor count (dose: 400.0 mg/kg/injection, schedule: Q04DX003 (ip), vehicle: saline): 10 of 10

C[C@]12CC[C@@H]3c4ccc(O)cc4CC[C@H]3[C@@H]1C[C@@H](O)[C@@H]2O
survivor count [16]: 6 of 6

COC(=O)C12Oc3ccc(-c4ccc5c(c4O)C(O)=C4C(=O)CC(C)C(O)C4(C(=O)OC)O5)c(O)c3C(O)=C1C(=O)CC(C)C2O (configuration not stated)
survivor count (dose: 2.5 mg/kg/injection, schedule: Q01DX009 (ip), vehicle: saline with Tween-80): 10 of 10
survivor count (dose: 5.0 mg/kg/injection, schedule: Q01DX009 (ip), vehicle: saline with Tween-80): 10 of 10
survivor count (dose: 10.0 mg/kg/injection, schedule: Q01DX009 (ip), vehicle: saline with Tween-80): 9 of 10

CCN(CC)C(=O)C1CN2CCc3cc(OC)c(OC)cc3C2CC1OC(C)=O (configuration not stated)
survivor count (dose: 12.5 mg/kg/injection, schedule: Q01DX009 (ip), vehicle: Klucel (hydroxypropylcellulose) (HPC)): 10 of 10
survivor count [12]: 8 of 10
survivor count [15]: 10 of 10

COC(CBr)c1ccccc1 (configuration not stated)
survivor count [12]: 10 of 10
survivor count [13]: 10 of 10
survivor count [14]: 7 of 10

Nc1ncc(CNc2ccc(C(=O)NC(CCC(=O)O)C(=O)O)cc2)c(N)n1 (configuration not stated)
survivor count [14]: 9 of 10
survivor count [15]: 10 of 10
survivor count [16]: 10 of 10

C(=N/NC1=NCCN1)/c1c2ccccc2c(/C=N\NC2=NCCN2)c2ccccc12
survivor count [3]: 10 of 10

CCCCC[C@H](O)/C=C/[C@H]1[C@H](O)CC(=O)[C@@H]1C/C=C\CCCC(=O)O
survivor count (dose: 12.0 mg/kg/injection, schedule: Q04DX002 (ip), vehicle: Klucel (hydroxypropylcellulose) (HPC)): 3 of 3
survivor count (dose: 50.0 mg/kg/injection, schedule: Q04DX002 (ip), vehicle: other): 3 of 3
survivor count (dose: 400.0 mg/kg/injection, schedule: Q04DX002 (ip), vehicle: other): 3 of 3

CCCC1CC[N-]CC1.CCCC1CC[N-]CC1.CCCC1CC[N-]CC1.CCCC1CC[N-]CC1.CS(C)=O.CS(C)=O.[Cl-].[Cl-].[Cl-].[Cl-].[Cl][Rh][Cl].[Rh+3]
T/C (dose: 12.5 mg/kg/injection, schedule: Q01DX009 (ip), vehicle: water): 128 % of control

CCCCCCCCCCCCCCCC(=O)N(CCC#N)C(C)(C)CCC(C)(C)N(CCC#N)C(=O)CCCCCCCCCCCCCCC
survivor count [15]: 10 of 10

Cc1cc2cc3cc(C)c(N)cc3nc2cc1N
T/C [5]: 136 % of control
T/C [6]: 136 % of control
T/C [7]: 130 and 145 % of control
T/C (dose: 25.0 mg/kg/injection, schedule: Q01DX009 (ip), vehicle: saline with Tween-80): 141 % of control
survivor count [8]: 8 of 10 and 10 of 10
survivor count [9]: 6 of 10
